Reference: PubChem BioAssay AID1224830 (NIAID, 2016)
The whole screen tested about 18,000 reagents; shown is a part drawn at random. About 2,900 of them (16%) count as active. 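Calls are made per well; low scores hint the gene aids the LPS response, high scores that it dampens it.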 Repeated entries: four replicate wells of each siRNA pool.

- Aim: 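Regulators of TLR4 signalling towards TNF-alpha in macrophage-like cells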 (primary screen)
- System: human THP-1 monocytic leukaemia cells, TNF dual-luciferase reporter clone, PMA-differentiated to macrophage-like cells
- Reagent: siRNA pool against human genes, 50 nM
- Timing: LPS for 4 h, given about 3 days after siRNA transfection
- Conditions: bacterial LPS (TLR4 ligand), 10 ng/ml
- Measurement: 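TNF firefly reporter luminescence divided by renilla, normalised to the plate median, then turned into a robust z-score for each replicate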
- Scale: TNF reporter robust z-score: higher = stronger TNF reporter response to LPS
- Hit rule: 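Each well counts as active if its z-score is over 2.8 or under -1.5; controls are left without a call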

With ZNF260 (GeneID 339324), what does the deposit list?
TNF reporter robust z-score: -0.28; call: inactive

With ZNF260 (GeneID 339324), how do the results read?
TNF reporter robust z-score: 2.3; call: inactive

With ZNF260 (GeneID 339324), what was measured?
TNF reporter robust z-score: 0.77; call: inactive

With ZNF260 (GeneID 339324), what does the deposit list?
TNF reporter robust z-score: 0.9; call: inactive

How did the screen score SCN2B (GeneID 6327)?
TNF reporter robust z-score: 0.93; call: inactive

Which result is listed for SCN2B (GeneID 6327)?
TNF reporter robust z-score: 2.53; call: inactive

How did the screen score SCN2B (GeneID 6327)?
TNF reporter robust z-score: 0.16; call: inactive

For SCN2B (GeneID 6327), what was measured?
TNF reporter robust z-score: 0.14; call: inactive

For SSUH2 (GeneID 51066), how do the results read?
TNF reporter robust z-score: 0.22; call: inactive

For SSUH2 (GeneID 51066), how do the results read?
TNF reporter robust z-score: -0.58; call: inactive

Which result is listed for SSUH2 (GeneID 51066)?
TNF reporter robust z-score: 0.15; call: inactive

With SSUH2 (GeneID 51066), what does the deposit list?
TNF reporter robust z-score: 1.57; call: inactive

With PAGE2 (GeneID 203569), how do the results read?
TNF reporter robust z-score: 1.06; call: inactive

Which result is listed for PAGE2 (GeneID 203569)?
TNF reporter robust z-score: 1.07; call: inactive

What is on record for PAGE2 (GeneID 203569)?
TNF reporter robust z-score: 0.91; call: inactive

For PAGE2 (GeneID 203569), how do the results read?
TNF reporter robust z-score: -0.89; call: inactive

Which result is listed for RAD51B (GeneID 5890)?
TNF reporter robust z-score: 0.18; call: inactive

With RAD51B (GeneID 5890), how do the results read?
TNF reporter robust z-score: -0.04; call: inactive

How did the screen score RAD51B (GeneID 5890)?
TNF reporter robust z-score: -0.27; call: inactive

What is on record for RAD51B (GeneID 5890)?
TNF reporter robust z-score: 0.38; call: inactive

How did the screen score TTLL11 (GeneID 158135)?
TNF reporter robust z-score: -0.13; call: inactive

What did the screen give for TTLL11 (GeneID 158135)?
TNF reporter robust z-score: -0.01; call: inactive

For TTLL11 (GeneID 158135), how do the results read?
TNF reporter robust z-score: 0.23; call: inactive

With TTLL11 (GeneID 158135), how do the results read?
TNF reporter robust z-score: 1.18; call: inactive

Next results:
What is on record for SHMT1 (GeneID 6470)?
TNF reporter robust z-score: -0.44; call: inactive

For SHMT1 (GeneID 6470), how do the results read?
TNF reporter robust z-score: -0.56; call: inactive

For SHMT1 (GeneID 6470), what was measured?
TNF reporter robust z-score: -0.78; call: inactive

For SHMT1 (GeneID 6470), how do the results read?
TNF reporter robust z-score: 0.48; call: inactive

With TGIF2LY (GeneID 90655), what was measured?
TNF reporter robust z-score: -0.32; call: inactive

How did the screen score TGIF2LY (GeneID 90655)?
TNF reporter robust z-score: 0.09; call: inactive

What did the screen give for TGIF2LY (GeneID 90655)?
TNF reporter robust z-score: 0.58; call: inactive

With TGIF2LY (GeneID 90655), what does the deposit list?
TNF reporter robust z-score: -0.75; call: inactive

For PCDH20 (GeneID 64881), how do the results read?
TNF reporter robust z-score: 0.5; call: inactive

For PCDH20 (GeneID 64881), what does the deposit list?
TNF reporter robust z-score: 1.49; call: inactive

For PCDH20 (GeneID 64881), how do the results read?
TNF reporter robust z-score: -0.4; call: inactive

What did the screen give for PCDH20 (GeneID 64881)?
TNF reporter robust z-score: 1.46; call: inactive

With FLVCR1 (GeneID 28982), what does the deposit list?
TNF reporter robust z-score: -0.03; call: inactive

With FLVCR1 (GeneID 28982), what was measured?
TNF reporter robust z-score: -0.2; call: inactive

What did the screen give for FLVCR1 (GeneID 28982)?
TNF reporter robust z-score: 0.17; call: inactive

With FLVCR1 (GeneID 28982), how do the results read?
TNF reporter robust z-score: 0.25; call: inactive

What is on record for OR2S2 (GeneID 56656)?
TNF reporter robust z-score: 0.33; call: inactive

What is on record for OR2S2 (GeneID 56656)?
TNF reporter robust z-score: 1.46; call: inactive

With OR2S2 (GeneID 56656), how do the results read?
TNF reporter robust z-score: 0.09; call: inactive

For OR2S2 (GeneID 56656), what does the deposit list?
TNF reporter robust z-score: 1.26; call: inactive

With CGA (GeneID 1081), what does the deposit list?
TNF reporter robust z-score: -0.55; call: inactive

What did the screen give for CGA (GeneID 1081)?
TNF reporter robust z-score: -0.83; call: inactive

How did the screen score CGA (GeneID 1081)?
TNF reporter robust z-score: -0.74; call: inactive

With CGA (GeneID 1081), how do the results read?
TNF reporter robust z-score: -0.76; call: inactive

What is on record for TSC1 (GeneID 7248)?
TNF reporter robust z-score: -1.16; call: inactive

What did the screen give for TSC1 (GeneID 7248)?
TNF reporter robust z-score: 0.62; call: inactive

For TSC1 (GeneID 7248), what does the deposit list?
TNF reporter robust z-score: 1.29; call: inactive

For TSC1 (GeneID 7248), what was measured?
TNF reporter robust z-score: 0.46; call: inactive

What is on record for FABP2 (GeneID 2169)?
TNF reporter robust z-score: 0.79; call: inactive

With FABP2 (GeneID 2169), what was measured?
TNF reporter robust z-score: 0.36; call: inactive

What is on record for FABP2 (GeneID 2169)?
TNF reporter robust z-score: 0.17; call: inactive

Which result is listed for FABP2 (GeneID 2169)?
TNF reporter robust z-score: 0; call: inactive

How did the screen score ITGAE (GeneID 3682)?
TNF reporter robust z-score: 0.45; call: inactive

For ITGAE (GeneID 3682), what does the deposit list?
TNF reporter robust z-score: -0.81; call: inactive

For ITGAE (GeneID 3682), how do the results read?
TNF reporter robust z-score: -0.14; call: inactive

What is on record for ITGAE (GeneID 3682)?
TNF reporter robust z-score: -0.46; call: inactive
